This passage reports binding results from article doi:10.1101/2022.09.16.508288.

Sequences of proteins named here, by UniProt entry; tags and fusion partners are left off.
UniProt Q5DTM8: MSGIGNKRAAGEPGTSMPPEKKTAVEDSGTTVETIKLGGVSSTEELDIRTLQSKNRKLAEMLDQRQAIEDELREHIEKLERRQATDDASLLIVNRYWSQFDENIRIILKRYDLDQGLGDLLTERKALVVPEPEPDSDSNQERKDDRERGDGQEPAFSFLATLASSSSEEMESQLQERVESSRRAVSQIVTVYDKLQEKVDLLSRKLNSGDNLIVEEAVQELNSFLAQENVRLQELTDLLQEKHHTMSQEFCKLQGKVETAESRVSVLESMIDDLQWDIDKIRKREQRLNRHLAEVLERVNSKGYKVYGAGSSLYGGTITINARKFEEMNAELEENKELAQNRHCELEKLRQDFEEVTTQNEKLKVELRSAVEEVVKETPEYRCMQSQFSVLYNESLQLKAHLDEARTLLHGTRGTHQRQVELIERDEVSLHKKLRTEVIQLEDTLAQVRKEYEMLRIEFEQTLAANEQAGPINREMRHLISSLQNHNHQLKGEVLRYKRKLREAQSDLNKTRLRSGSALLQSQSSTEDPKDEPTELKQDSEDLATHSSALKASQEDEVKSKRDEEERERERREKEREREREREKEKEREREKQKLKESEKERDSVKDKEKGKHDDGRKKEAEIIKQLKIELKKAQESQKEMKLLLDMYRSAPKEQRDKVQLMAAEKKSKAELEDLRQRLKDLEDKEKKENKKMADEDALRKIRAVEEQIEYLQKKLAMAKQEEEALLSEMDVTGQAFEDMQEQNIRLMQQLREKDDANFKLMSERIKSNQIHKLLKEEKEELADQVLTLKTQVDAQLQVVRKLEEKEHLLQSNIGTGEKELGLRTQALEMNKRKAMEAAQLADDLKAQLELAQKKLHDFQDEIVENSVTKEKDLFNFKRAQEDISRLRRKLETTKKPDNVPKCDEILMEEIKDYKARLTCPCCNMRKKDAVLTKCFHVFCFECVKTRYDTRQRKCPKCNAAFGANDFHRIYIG

These are yes or no findings as the source states them, for the method shown. For part of these data: In cells and extracts the contact can be indirect. Some binding calls cover weakened binding; strength is not graded here.

The target in one test is GST-Rnf20 fusion protein (UniProt Q5DTM8). Briefly: pull-down.
The target of test [1] is Rnf20 (on the protein array) (UniProt Q5DTM8). The test can be described thus: peptide or protein array.
For test [2], the target named is Rnf20 (in cardiac progenitors) (UniProt Q5DTM8). Briefly: co-IP.

B1: recombinant Isl1 protein (protein, UniProt P61372 1-349)
chain: MGDMGDPPKKKRLISLCVGCGNQIHDQYILRVSPDLEWHAACLKCAECNQYLDESCTCFVRDGKTYCKRDYIRLYGIKCAKCSIGFSKNDFVMRARSKVYHIECFRCVACSRQLIPGDEFALREDGLFCRADHDVVERASLGAGDPLSPLHPARPLQMAAEPISARQPALRPHVHKQPEKTTRVRTVLNEKQLHTLRTCYAANPRPDALMKEQLVEMTGLSPRVIRVWFQNKRCKDKKRSIMMKQLQQQQPNDKTNIQGMTGTPMVAASPERHDGGLQANPVEVQSYQPPWKVLSDFALQSDIDQPAFQQLVNFSEGGPGSNSTGSEVASMSSQLPDTPNSMVASPIEA
For B1, the binding entry (with GST-Rnf20 fusion protein; in test [1]) was “binds” throughout.

B2: Isl1 (in cardiac progenitors) (protein, UniProt P61372 1-349)
chain: MGDMGDPPKKKRLISLCVGCGNQIHDQYILRVSPDLEWHAACLKCAECNQYLDESCTCFVRDGKTYCKRDYIRLYGIKCAKCSIGFSKNDFVMRARSKVYHIECFRCVACSRQLIPGDEFALREDGLFCRADHDVVERASLGAGDPLSPLHPARPLQMAAEPISARQPALRPHVHKQPEKTTRVRTVLNEKQLHTLRTCYAANPRPDALMKEQLVEMTGLSPRVIRVWFQNKRCKDKKRSIMMKQLQQQQPNDKTNIQGMTGTPMVAASPERHDGGLQANPVEVQSYQPPWKVLSDFALQSDIDQPAFQQLVNFSEGGPGSNSTGSEVASMSSQLPDTPNSMVASPIEA
B2: the binding result in test [2] is “binds”.
